In assay [1] the target is T1, Flag-USP25 (ubiquitin-specific protease 25), expressed in NIH/3T3 cells (UniProt P57080).
T1 sequence: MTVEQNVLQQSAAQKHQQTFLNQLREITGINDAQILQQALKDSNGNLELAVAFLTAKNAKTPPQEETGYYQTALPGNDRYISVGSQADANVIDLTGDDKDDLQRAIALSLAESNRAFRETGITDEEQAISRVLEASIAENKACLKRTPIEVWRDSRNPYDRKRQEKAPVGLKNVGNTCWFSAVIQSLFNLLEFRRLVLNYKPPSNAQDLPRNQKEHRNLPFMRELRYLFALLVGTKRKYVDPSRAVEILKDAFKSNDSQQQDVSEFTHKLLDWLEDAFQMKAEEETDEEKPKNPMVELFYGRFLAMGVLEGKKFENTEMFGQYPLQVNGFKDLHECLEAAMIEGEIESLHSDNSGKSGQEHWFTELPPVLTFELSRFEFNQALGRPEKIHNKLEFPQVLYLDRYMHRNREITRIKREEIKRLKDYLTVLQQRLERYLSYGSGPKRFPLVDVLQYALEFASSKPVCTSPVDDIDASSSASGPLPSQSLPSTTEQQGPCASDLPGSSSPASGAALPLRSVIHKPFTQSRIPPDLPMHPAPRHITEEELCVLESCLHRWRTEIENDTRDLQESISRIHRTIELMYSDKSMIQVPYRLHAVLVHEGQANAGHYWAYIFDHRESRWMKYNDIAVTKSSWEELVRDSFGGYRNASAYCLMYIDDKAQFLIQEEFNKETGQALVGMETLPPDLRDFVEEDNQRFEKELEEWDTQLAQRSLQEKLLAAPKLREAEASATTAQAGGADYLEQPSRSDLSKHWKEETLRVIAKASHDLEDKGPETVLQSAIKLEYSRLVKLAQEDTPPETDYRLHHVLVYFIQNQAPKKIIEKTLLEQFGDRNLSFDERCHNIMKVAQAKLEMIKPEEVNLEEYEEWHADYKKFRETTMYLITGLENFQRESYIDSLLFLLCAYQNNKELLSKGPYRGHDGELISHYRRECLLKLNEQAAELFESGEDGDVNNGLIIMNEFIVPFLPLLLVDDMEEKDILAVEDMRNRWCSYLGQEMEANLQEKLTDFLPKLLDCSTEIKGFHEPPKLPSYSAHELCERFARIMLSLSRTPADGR
Description: co-IP; NIH/3T3 cells co-transfected with wild-type or domain deletion constructs of NLRP3 (HA-His) or USP25 (Flag) and the partner; IP with anti-Flag antibody, western blot. (A western blot detects proteins with antibodies after separation by electrophoresis.)

Protein sequences, listed by entry. Tags and fused reporters are not part of them.
UniProt Q8R4B8: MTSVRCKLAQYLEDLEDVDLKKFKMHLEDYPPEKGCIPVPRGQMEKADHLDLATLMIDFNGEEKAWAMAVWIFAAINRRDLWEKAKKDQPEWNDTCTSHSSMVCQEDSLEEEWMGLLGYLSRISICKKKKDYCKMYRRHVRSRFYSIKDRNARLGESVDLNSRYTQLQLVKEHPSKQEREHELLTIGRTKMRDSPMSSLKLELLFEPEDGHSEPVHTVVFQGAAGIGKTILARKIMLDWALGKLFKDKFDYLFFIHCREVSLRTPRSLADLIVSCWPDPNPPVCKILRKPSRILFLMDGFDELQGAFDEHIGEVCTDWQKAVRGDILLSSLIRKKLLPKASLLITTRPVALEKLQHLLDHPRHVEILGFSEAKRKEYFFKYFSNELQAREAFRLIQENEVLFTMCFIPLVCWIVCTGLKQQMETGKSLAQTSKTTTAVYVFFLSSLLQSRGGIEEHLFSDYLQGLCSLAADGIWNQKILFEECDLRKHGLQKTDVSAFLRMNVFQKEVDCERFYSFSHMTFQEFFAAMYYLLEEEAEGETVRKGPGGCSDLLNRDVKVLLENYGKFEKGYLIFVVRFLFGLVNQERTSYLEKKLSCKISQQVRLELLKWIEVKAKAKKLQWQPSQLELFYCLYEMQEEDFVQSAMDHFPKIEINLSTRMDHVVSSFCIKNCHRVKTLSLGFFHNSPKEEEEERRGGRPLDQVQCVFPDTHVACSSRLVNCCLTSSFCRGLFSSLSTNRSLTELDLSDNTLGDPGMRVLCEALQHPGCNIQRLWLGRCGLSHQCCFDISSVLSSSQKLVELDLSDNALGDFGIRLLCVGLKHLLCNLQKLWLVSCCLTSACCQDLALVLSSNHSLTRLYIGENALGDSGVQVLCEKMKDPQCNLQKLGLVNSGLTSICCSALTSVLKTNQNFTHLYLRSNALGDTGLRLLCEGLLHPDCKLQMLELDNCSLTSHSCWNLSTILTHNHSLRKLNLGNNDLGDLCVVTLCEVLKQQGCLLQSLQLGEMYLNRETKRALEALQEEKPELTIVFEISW

For assay [2], the target named is T2, Flag-USP25 (ubiquitin-specific protease 25), expressed in neonatal rat primary cardiomyocytes (UniProt P57080).
T2 sequence: T1 sequence
Nature of the assay: co-IP; NRPCs co-transfected with USP25 and NLRP3 plasmids, with or without H/R; IP with anti-Flag antibody, western blot.

Assay [3] addresses His-NLRP3, expressed in NIH/3T3 cells (UniProt Q8R4B8). Description: co-IP; NIH/3T3 cells co-transfected with Flag-USP25 and His-NLRP3; IP with anti-His antibody, western blot.

These are yes or no findings as the source states them, for the method shown. Binding seen in cells or lysates may run through a third protein. Some entries that bind do so weakly or less than the wild type. Where a sequence is shown, tags or fusion partners need not be part of it.

The values below come from paper PMC11845855.

Turning to “HA-His-wt-NLRP3, expressed in NIH/3T3 cells (from UniProt Q8R4B8 1-1033)”, the binding entry in assay [1] is given as “binds”. Take “His-NLRP3, expressed in NIH/3T3 cells (from UniProt Q8R4B8 1-1033)”: the binding result in assay [1] was “binds”.

In the case of “NLRP3 expressed from plasmid in neonatal rat primary cardiomyocytes (from UniProt Q8R4B8 1-1033)”, the binding result in assay [2] is recorded as “binds”.

B1: Flag-USP25 (ubiquitin-specific protease 25), expressed in NIH/3T3 cells (enzyme, UniProt P57080 1-1055)
chain: T1 sequence
B1: in assay [3], the binding entry is reported as “binds”.
